Experimental findings from the supplement of paper PMC10338343 are described below.

± gives the standard deviation. The entries are a selection whose mix differs from that of the whole data set. Many entries were measured with a wide error.

The assay has as its system MIWI (PIWIL1) piRISC loaded with L1MC piRNA (30 nt). As to the kind of experiment: pre-steady-state target cleavage rate (min^-1); MIWI and MILI are mouse PIWI proteins and EfPiwi is from a freshwater sponge; tags in brackets are library labels; higher = faster piRNA-guided slicing of the target. Conditions: guide: L1MC piRNA 5'p-UAACUAAAUACUAUGCAAGCUGUAGGUCCU; auxiliary factor: none (no GTSF1). An outline of the steps:
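Cleave-'n-Seq: 1 nM active affinity-purified piRISC with one synthetic guide and 0.1 nM transcribed, DNA-blocked target RNA library were mixed, with or without 500 nM GTSF1 partner protein, in HEPES–potassium acetate buffer at 33 °C for 0–8 or 0–960 min. Uncleaved targets were sequenced and normalised to depth and to weakly complementary targets, three trials were pooled, and k3 was capped at 0.0001 min^-1. The pre-steady-state cleavage rate was fitted […].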
On to UCGACCUACAGCUUGCAUAGUAAUUACAAA, for which the “pre-steady-state target cleavage rate” value stood at 0.00121 ± 0.007.

UCGACCUACUCCUUGCAUAGUAUUUUCAAA: the “pre-steady-state target cleavage rate” value was found to be 0.00188 ± 0.0026.

For AGGACCUACAGCUUGCAUUGUAUUUUCAAA, the “pre-steady-state target cleavage rate” value came out at 0.00177 ± 0.005.

Regarding UCGACCUACAGCUUGCAUAGUAUUAUCAAA, the “pre-steady-state target cleavage rate” value came out at 0.00159 ± 0.0045.

As for UCCACCUACAGCUUGCAUAGUAAAUUCAAA, the “pre-steady-state target cleavage rate” value stood at 0.000298 ± 0.01.

Take UCGACCUUGUGCUUGCAUAGUAUUUUCAAA: the “pre-steady-state target cleavage rate” value was 0.00146 ± 0.0026.

UCGACCUACAGGAAGCAUAGUAUUUAGAAA: the “pre-steady-state target cleavage rate” value was found to be 0.00051 ± 0.0083.

Consider UCGACCUACAGCUACGAUAGUAUUUAGAAA, for which the “pre-steady-state target cleavage rate” value was 0.000254 ± 0.01.

With AGGACCUACAGCUUGCAAUGUAUUUUCAAA, the “pre-steady-state target cleavage rate” value is 0.000775 ± 0.0067.

With AGGACCUACACGAUGCAUAGUAUUUAGAAA, the “pre-steady-state target cleavage rate” value was found to be 0.00149 ± 0.0044.

Consider UCGACCUACACGUUGCAUAGUAUUUUCAAA, for which the “pre-steady-state target cleavage rate” value worked out at 0.000832 ± 0.0083.

As to UGCACCUACAGCUUGCAUAGUAUUUUCAAA, the “pre-steady-state target cleavage rate” value came out at 0.00256 ± 0.0042.

With UCCACCUACAGCUUCGAUAGUAUUUAGUAA, the “pre-steady-state target cleavage rate” value worked out at 0.00105 ± 0.0059.

Take UCGACCUACAGCUUGCAAUGUAUUUACAAA: the “pre-steady-state target cleavage rate” value stood at 0.000977 ± 0.0071.

On to UCCACCUACAGCUUGCAUAGUUAAUACAAA, for which the “pre-steady-state target cleavage rate” value came to 0.000763 ± 0.0093.

For AGGACCUACAGCUUGCAUAGUUAAUAGAAA, the “pre-steady-state target cleavage rate” value came to 0.00124 ± 0.0062.
